doi:10.1101/2021.12.09.472013 (bioRxiv, 2021)
These are yes or no findings as the source states them, for the method shown. Some binding calls cover weakened binding; strength is not graded here.

Amino acid sequences for entries named in this document (tags omitted). A change or cut given only in a name is not applied to a line headed by its entry. Residues count along the entry.
UniProt O14656, whole entry, looked up, stated change not applied: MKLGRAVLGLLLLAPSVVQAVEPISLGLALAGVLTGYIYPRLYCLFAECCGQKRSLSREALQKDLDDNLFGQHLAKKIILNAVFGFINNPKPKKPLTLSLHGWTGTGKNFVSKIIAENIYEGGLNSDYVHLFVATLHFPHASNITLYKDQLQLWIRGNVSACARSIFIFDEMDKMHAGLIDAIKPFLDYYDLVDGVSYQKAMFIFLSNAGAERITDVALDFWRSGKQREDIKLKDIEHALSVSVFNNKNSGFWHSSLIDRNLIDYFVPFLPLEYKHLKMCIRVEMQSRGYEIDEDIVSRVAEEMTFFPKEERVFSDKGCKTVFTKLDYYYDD
UniProt O14656, 21-49: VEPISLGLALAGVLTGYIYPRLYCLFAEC
UniProt Q5JTV8, 122-583: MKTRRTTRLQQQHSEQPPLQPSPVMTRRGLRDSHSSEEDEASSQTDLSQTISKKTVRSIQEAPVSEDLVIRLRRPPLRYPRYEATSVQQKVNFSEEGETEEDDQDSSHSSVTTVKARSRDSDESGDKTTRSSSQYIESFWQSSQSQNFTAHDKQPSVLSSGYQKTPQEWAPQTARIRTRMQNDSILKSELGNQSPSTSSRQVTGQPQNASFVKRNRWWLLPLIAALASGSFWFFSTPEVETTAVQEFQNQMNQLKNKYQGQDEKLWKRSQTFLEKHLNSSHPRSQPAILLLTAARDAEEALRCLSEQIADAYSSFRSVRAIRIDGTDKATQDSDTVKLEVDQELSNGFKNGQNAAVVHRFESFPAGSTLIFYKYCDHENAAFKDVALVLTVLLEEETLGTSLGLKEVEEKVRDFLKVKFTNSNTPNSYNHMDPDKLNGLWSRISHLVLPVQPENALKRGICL

How the values were obtained:
SS-EGFP-torsinA^C49Y = SS-EGFP-torsinA^C49Y (UniProt O14656); assay: fluorescence fluctuation spectroscopy
SS-EGFP-torsinA^21-49 = SS-EGFP-torsinA^21-49 (UniProt O14656); assay: fluorescence fluctuation spectroscopy
[1] = target: SS-EGFP-torsinA^(ΔNTD, K108A) (UniProt O14656); assay: fluorescence fluctuation spectroscopy
[2] = target: SS-EGFP-torsinA^(ΔNTD, ΔE) (UniProt O14656); assay: fluorescence fluctuation spectroscopy
SS-EGFP-torsinA^E171Q = SS-EGFP-torsinA^E171Q (UniProt O14656); assay: quantitative photobleaching analysis
SS-EGFP-torsinA^K108A = SS-EGFP-torsinA^K108A (UniProt O14656); assay: quantitative photobleaching analysis
EGFP-LAP1C^WT = EGFP-LAP1C^WT (UniProt Q5JTV8); assay: fluorescence fluctuation spectroscopy
[3] = target: SS-EGFP-torsinA^ΔE302/303 (UniProt O14656); assay: quantitative photobleaching analysis

For “SS-EGFP-torsinA^C49Y (from UniProt O14656 21-332)”, the binding (SS-EGFP-torsinA^C49Y) was “binds”.

In the case of “SS-EGFP-torsinA^21-49 (from UniProt O14656 21-49) (domain or fragment)”, the binding (SS-EGFP-torsinA^21-49) is reported as “no binding”.

For “SS-EGFP-torsinA^(ΔNTD, K108A) (from UniProt O14656 21-332)”, the binding [1] was “binds”.

For “SS-EGFP-torsinA^(ΔNTD, ΔE) (from UniProt O14656 21-332)”, the binding [2] was “binds”.

In the case of “SS-EGFP-torsinA^E171Q (from UniProt O14656 21-332)”, the binding (SS-EGFP-torsinA^E171Q) is reported as “binds”.

With “SS-EGFP-torsinA^K108A (from UniProt O14656 21-332)” the binding (SS-EGFP-torsinA^K108A) was “binds”.

For “EGFP-LAP1C^WT (from UniProt Q5JTV8-4 1-462)”, the binding (EGFP-LAP1C^WT) was “no binding (tested: N ≤ 200)”.

For “SS-EGFP-torsinA^ΔE302/303 (from UniProt O14656 21-332)”, the binding [3] was “binds”.
